PubChem BioAssay AID652259, Drosophila RNAi Screening Center, 2013
The screen tested about 22,000 reagents; this is a random part of those with a known target gene and a result. Of all reagents, 233 (1.1%) were called active. 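Light values are raw, unnormalised plate reads; the ratio scores behind the reporter calls were not deposited.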 No sequences are given here. Not stated in the record: the amount of reagent, the time to read-out, the dose of the treatment.

Screen: 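Genome-wide hunt for genes that control Wingless pathway activity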 (primary screen)
System: Drosophila clone 8 imaginal disc epithelial cells
Knock-down reagent: long dsRNA against Drosophila genes
Treatment: pathway stimulated by co-transfected Wingless expression plasmid
Read-out: 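Firefly luciferase from a tcf-site Wingless reporter, measured alongside co-transfected Renilla luciferase that tracks transfection; pathway stimulated by a Wingless plasmid; the firefly-to-Renilla ratio is not deposited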
Reading the numbers: firefly reporter light: higher = more Wg reporter light, before normalisation; Renilla control light: higher = more transfected or surviving cells
Hit rule: 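a knock-down is a candidate when at least two out of four statistical tests show it departing from its plate mean; one test alone signals a weak candidate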
Calls: active = candidate regulator (raises or lowers reporter); inactive = not a candidate

CG1907 [DRSC15399] gave firefly reporter light, replicate 1 = 3005; firefly reporter light, replicate 2 = 9789; Renilla control light, replicate 1 = 1696; Renilla control light, replicate 2 = 3319; inactive.
Against Elp2 [DRSC06095], the entry reads firefly reporter light, replicate 1 = 6352; Renilla control light, replicate 1 = 2071; inactive.
ca [DRSC15305] showed firefly reporter light, replicate 1 = 3168; firefly reporter light, replicate 2 = 7189; Renilla control light, replicate 1 = 1336; Renilla control light, replicate 2 = 2269; inactive.
Against ca [DRSC15306], the entry reads firefly reporter light, replicate 1 = 9286; Renilla control light, replicate 1 = 2513; inactive.
For ca [DRSC16314], the entry reads firefly reporter light, replicate 1 = 7491; Renilla control light, replicate 1 = 2728; inactive.
Silencing of Prps [DRSC08994] resulted in: firefly reporter light, replicate 1 = 2752; Renilla control light, replicate 1 = 1600; inactive.
After knock-down of Prps [DRSC10707], the screen gave firefly reporter light, replicate 1 = 3173; Renilla control light, replicate 1 = 2016; inactive.
Prps [DRSC10708] scored firefly reporter light, replicate 1 = 7186; Renilla control light, replicate 1 = 3331; inactive.
Knock-down of CG8534 [DRSC16439] gave: firefly reporter light, replicate 1 = 22240; Renilla control light, replicate 1 = 5720; inactive.
Aos1 [DRSC14113] scored reporter change call, replicate 1 = Wg reporter activity raised; firefly reporter light, replicate 1 = 16916; Renilla control light, replicate 1 = 3152; inactive.
Knock-down of Hou [DRSC20001] came out at: firefly reporter light, replicate 1 = 3667; firefly reporter light, replicate 2 = 12327; Renilla control light, replicate 1 = 1543; Renilla control light, replicate 2 = 4612; inactive.
Hou [DRSC22347] scored firefly reporter light, replicate 1 = 4.91e5; firefly reporter light, replicate 2 = 4.97e5; Renilla control light, replicate 1 = 2.18e5; Renilla control light, replicate 2 = 2.25e5; inactive.
For Fie [DRSC08158], the values are firefly reporter light, replicate 1 = 6436; Renilla control light, replicate 1 = 2633; inactive.
Knock-down of RpL18 [DRSC11016] came out at: firefly reporter light, replicate 1 = 1643; firefly reporter light, replicate 2 = 7046; Renilla control light, replicate 1 = 1080; Renilla control light, replicate 2 = 3322; inactive.
RpL18 [DRSC22323] gave firefly reporter light, replicate 1 = 5.80e5; firefly reporter light, replicate 2 = 7.00e5; Renilla control light, replicate 1 = 1.43e5; Renilla control light, replicate 2 = 1.43e5; inactive.
Against smog [DRSC00334], the entry reads firefly reporter light, replicate 1 = 3509; firefly reporter light, replicate 2 = 7811; Renilla control light, replicate 1 = 1448; Renilla control light, replicate 2 = 2759; inactive.
Against smog [DRSC00335] the deposit lists firefly reporter light, replicate 1 = 3431; firefly reporter light, replicate 2 = 5381; Renilla control light, replicate 1 = 816; Renilla control light, replicate 2 = 976; inactive.
CheB74a [DRSC09503] gave firefly reporter light, replicate 1 = 2744; Renilla control light, replicate 1 = 996; inactive.
Silencing of HSPBAP1 [DRSC14567] gave: firefly reporter light, replicate 1 = 6504; Renilla control light, replicate 1 = 2391; inactive.
Against CR10991 [DRSC12156] the deposit lists firefly reporter light, replicate 1 = 18098; Renilla control light, replicate 1 = 3558; inactive.
After knock-down of alien [DRSC03482], the record shows firefly reporter light, replicate 1 = 12850; Renilla control light, replicate 1 = 3106; inactive.
Silencing of vir [DRSC04377] came out at: firefly reporter light, replicate 1 = 2563; firefly reporter light, replicate 2 = 5178; Renilla control light, replicate 1 = 608; Renilla control light, replicate 2 = 1804; inactive.
With knock-down of l(2)k14505 [DRSC03106], the record shows firefly reporter light, replicate 1 = 5878; Renilla control light, replicate 1 = 1609; inactive.
COX6B [DRSC19590] scored firefly reporter light, replicate 1 = 3811; firefly reporter light, replicate 2 = 8739; Renilla control light, replicate 1 = 1269; Renilla control light, replicate 2 = 3716; inactive.
Silencing of Np [DRSC06089] gave: firefly reporter light, replicate 1 = 4040; firefly reporter light, replicate 2 = 5603; Renilla control light, replicate 1 = 1269; Renilla control light, replicate 2 = 2732; inactive.
Np [DRSC07094] gave firefly reporter light, replicate 1 = 5296; firefly reporter light, replicate 2 = 16985; Renilla control light, replicate 1 = 1528; Renilla control light, replicate 2 = 4792; inactive.
Silencing of Np [DRSC22421] resulted in: firefly reporter light, replicate 1 = 8.02e5; firefly reporter light, replicate 2 = 7.99e5; Renilla control light, replicate 1 = 2.19e5; Renilla control light, replicate 2 = 1.86e5; inactive.
For CG31347 [DRSC21582], the values are firefly reporter light, replicate 1 = 5.09e5; firefly reporter light, replicate 2 = 5.23e5; Renilla control light, replicate 1 = 2.49e5; Renilla control light, replicate 2 = 2.25e5; inactive.
For Cpr49Af [DRSC07202], the values are firefly reporter light, replicate 1 = 6753; Renilla control light, replicate 1 = 2740; inactive.
Myo31DF [DRSC03376] gave firefly reporter light, replicate 1 = 21505; Renilla control light, replicate 1 = 8101; inactive.
Against Myo31DF [DRSC22702], the values are firefly reporter light, replicate 1 = 3.58e5; firefly reporter light, replicate 2 = 4.85e5; Renilla control light, replicate 1 = 1.97e5; Renilla control light, replicate 2 = 1.52e5; inactive.
Knock-down of Polr1C [DRSC02719] gave: firefly reporter light, replicate 1 = 8981; Renilla control light, replicate 1 = 4083; inactive.
